Laboratory results from article PMC11681874.
No constants are given. Whether binding was seen depends on the method and setting. In cells and extracts the contact can be indirect. Binding calls can cover weak binding; strength is not graded here.

Target: T1, RXRα (UniProt P28700)
T1 sequence: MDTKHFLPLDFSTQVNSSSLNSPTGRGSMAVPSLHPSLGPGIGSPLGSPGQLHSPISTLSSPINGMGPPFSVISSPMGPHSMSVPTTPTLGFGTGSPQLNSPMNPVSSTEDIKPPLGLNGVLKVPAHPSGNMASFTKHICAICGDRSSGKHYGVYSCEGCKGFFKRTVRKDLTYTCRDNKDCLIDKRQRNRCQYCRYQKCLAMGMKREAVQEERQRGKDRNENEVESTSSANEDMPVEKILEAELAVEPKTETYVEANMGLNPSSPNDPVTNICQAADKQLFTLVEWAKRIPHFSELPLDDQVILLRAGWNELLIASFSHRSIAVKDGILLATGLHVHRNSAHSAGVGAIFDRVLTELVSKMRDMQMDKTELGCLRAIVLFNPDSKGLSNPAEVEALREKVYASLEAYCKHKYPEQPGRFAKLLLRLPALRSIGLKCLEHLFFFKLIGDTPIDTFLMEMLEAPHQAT
Assay: co-IP; immunoprecipitation with anti-RXRα antibody of exogenously expressed proteins as indicated, in differentiated 3T3-L1 cells; no methods section for the co-IP

## Zinc finger protein 407
  binding: binds
